63 sequences from the supplement of paper PMC10338343 can be followed below.

± gives the standard deviation. This is a selection; strong and weak results do not stand in their true shares. Many of these values have a large error.

Assay in all cases: pre-steady-state target cleavage rate (min^-1); MIWI and MILI are mouse PIWI proteins and EfPiwi is from a freshwater sponge; tags in brackets are library labels; higher = faster piRNA-guided slicing of the target
Test [1] has as its system MILI (PIWIL2) piRISC loaded with L1MC piRNA (26 nt). Conditions: guide: L1MC piRNA 5'p-UAACUAAAUACUAUGCAAGCUGUAGG; auxiliary factor: 500 nM mouse GTSF1. The method, boiled down: (§1)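 At 33 °C in HEPES–potassium acetate buffer, a transcribed, DNA-blocked target RNA library […] was exposed for 0–8 or 0–960 min to 1 nM active affinity-purified piRISC carrying a single synthetic guide, with or without 500 nM GTSF1 partner protein. Uncleaved targets were sequenced and normalised to depth and to weakly complementary targets. With three trials pooled and k3 capped at 0.0001 min^-1, a burst-and-steady-state fit produced the pre-steady-state cleavage rate.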

Test [2] concerns MIWI (PIWIL1) piRISC loaded with L1MC piRNA (30 nt). The settings on record: guide: L1MC piRNA 5'p-UAACUAAAUACUAUGCAAGCUGUAGGUCCU
The method, boiled down:
as §1

For test [3], the system named is MILI (PIWIL2) piRISC loaded with piRNA #1 (26 nt). Conditions: guide: piRNA #1 5'p-UGAGGUAGUAGGUUGUAUAGUAUCCA; auxiliary factor: 500 nM mouse GTSF1. The method, boiled down: as §1
The mark [4] stands for this setting: auxiliary factor: 500 nM mouse GTSF1.
Where [5] appears, read: auxiliary factor: none (no GTSF1).
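Also: 1 nM active piRISC with 0.1 nM target library at 33 °C single turnover.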

In the case of UCCUGGAUGUCGAACCAUAGUAUUUAUUUA, the “pre-steady-state target cleavage rate” value in test [1] stood at 0.000212 ± 0.031; in test [2] (setting [4]), 0.000324 ± 0.017; in test [2] (setting [5]) it was 0.000225 ± 0.026.
The corresponding values for UCCUGGUACAGCUUGCAUAGUAUUCUAGUUA are 0.353 ± 0.088, 0.442 ± 0.092 and 0.00651 ± 0.0028.
Turning to GGAGACCUAUGAUAUCAACCUAUACCUCA, the “pre-steady-state target cleavage rate” value in test [3] is 0.000107 ± 0.025.
Same read-out and setting: to GGAGACCUAUCUAUACAACCUACUACCUUCA belongs 0.139 ± 0.017.
On to UCCUGCUACAGCUUGGAUAGUAUUUAGUUA, for which the “pre-steady-state target cleavage rate” value in test [1] was 0.296 ± 0.017; in test [2] (setting [4]), 1.29 ± 0.12; in test [2] (setting [5]), 0.0507 ± 0.0096.
For GGAGACCUAUGAUAUGUUGGUACUACCGUCA, the “pre-steady-state target cleavage rate” value in test [3] was 0.000271 ± 0.028.
The same measure, in the same setting: to GGAGACGAUACUAUACAACCUACAAGCUCA belongs 0.0171 ± 0.0086; to GGAGACCUAUCUAUACUACCUACUAGCUCA, 0.0698 ± 0.014.
The same measure, in the same setting: to “GGAGACCUAUGAUAUGAACCUACUACCUCU [g2:g14:cont:t1U]” belongs 0.000352 ± 0.0081; to GGAGACCUAACUAUACAACCAACUACCUCA, 0.00232 ± 0.0082.
With GGAGACCUAUGAUAUGAACCUACAACCACA, the “pre-steady-state target cleavage rate” value in test [3] is under 0.0001.
The same measure, in the same setting: to GGAGAGGAUACUAUACAACCAAGUACCUCA belongs 0.0015 ± 0.0047.
Same read-out and setting: to GGAGACCUAUGAUAUGUACCUACUCACCUCA belongs 0.000436 ± 0.015; to GGAGAGGUAUACUAUACAACCUACUACCUCA, 0.111 ± 0.0086.
As for GGAGUGGUUACUAUACAUCCUACUACCUCA, the “pre-steady-state target cleavage rate” value in test [3] came to 0.295 ± 0.014.
As to GGAGACCUAUGAUAACAAGCAACUACCUCA, the “pre-steady-state target cleavage rate” value in test [3] was 0.000594 ± 0.0059.
On to GGAGACCUAUGAUAUGUACUCUACUACCUCA, for which the “pre-steady-state target cleavage rate” value in test [3] is under 0.0001.
For GGAGACCUAACUAUACAACCUACUCCUCA, the “pre-steady-state target cleavage rate” value in test [3] turned out to be 0.0015 ± 0.012.
As to GGAGACCUAUCUAUACAACCUACAUACCUCA, the “pre-steady-state target cleavage rate” value in test [3] amounted to 0.113 ± 0.015.
Consider GGAGACCUUACUAUUCAACCUACUACCUCA, for which, in test [3], the “pre-steady-state target cleavage rate” value came out at 0.15 ± 0.012.
As to GGAGACCUAUGAAUACAACUCUACUACCUCA, the “pre-steady-state target cleavage rate” value in test [3] was 0.000973 ± 0.0073.
On to GGAGACGAUACUUUACAAGCUACUACCUCA, for which the “pre-steady-state target cleavage rate” value in test [3] stood at 0.235 ± 0.015.
On the same count and under the same terms, to GGAGACCUUACUAUCAACCUACUACCUCA belongs 0.0728 ± 0.0079; to GGAGACCUAACUAUACAACCUACAACCUGA, 0.00865 ± 0.0074; to GGAGACCUAUGAUUACAACCUUGAACCUCA, 0.000172 ± 0.019.
On the same count and under the same terms, to GGAGACCUAUGAUAUCAUCCUACUAGCUCA belongs 0.00174 ± 0.0036; to GGAGACCUAUGAAUACUUGCUACUACCUCA, 0.000154 ± 0.018; to GGAGACCAUACUAUACAACCUUACUACCUCA, 0.00244 ± 0.0035.
Still for that read-out and setting: to GGAGACCUAUGAUAUCAACCUACUACCUACA belongs 0.0017 ± 0.0034.
Take GGAGACCUAACUAUAGAACCUUCUACCUCA: in test [3], the “pre-steady-state target cleavage rate” value is 0.00166 ± 0.0054.
Turning to “GGAGACCUUACUAUACAACCAUGAUGGAGA [g11:g22:cont:t1A]”, the “pre-steady-state target cleavage rate” value in test [3] is 0.000658 ± 0.01.
On to GGAGACCUAACUAUACAACCUACUACCUCCA, for which the “pre-steady-state target cleavage rate” value in test [3] worked out at 0.123 ± 0.021.
Still for that read-out and setting: to GGAGACGCUACUAUACAACCUACUACCUCA belongs 0.228 ± 0.019; to GGAGACCUAUGAUAACAACCUAGUAGCUCA, 0.000134 ± 0.021; to GGAGAGGAUACUAUACAACCAACAACCUCA, 0.00205 ± 0.0022.
In the case of GGAGACGAUACUUUACAUCCUACUACCUCA, the “pre-steady-state target cleavage rate” value in test [3] worked out at 0.257 ± 0.016.
Same read-out and setting: to “GGAGACCUUACUAUACAACCUAGAUGGAGA [g9:g22:cont:t1A]” belongs 0.00111 ± 0.0054; to GGAGAGGAUAAUAUACAACCUACUACCUCA, 0.135 ± 0.01; to GGAGACCAUACUAUACAACCAACUACCUGA, 0.00261 ± 0.0037.
The same measure, in the same setting: to GGAGACCAUACAAUACUACCUACUACCUCA belongs 0.158 ± 0.019; to GGAGACCUAACUAUUGUACCUACUACCUCA, 0.00477 ± 0.0036; to GGAGACCUAUGUAUACAACCUACUACUCUCA, 0.117 ± 0.013.
On the same count and under the same terms, to GGAGUGGAUACUACUACAACCUACUACCUCA belongs 0.193 ± 0.012; to GGAGACGAAACUAUACAACCUUCUACCUCA, 0.00739 ± 0.0047; to GGAGACCAUACUAUACAACCAACUUCCUCA, 0.00585 ± 0.003.
As to GGAGACCUAUGAAUACAACCUUGAACCUCA, the “pre-steady-state target cleavage rate” value in test [3] turned out to be 0.000188 ± 0.016.
On the same count and under the same terms, to GGAGAGGAUACUAUACAUACCUACUACCUCA belongs 0.00293 ± 0.0039; to GGAGACCUUACUAUACAACCUAGUACCUGA, 0.00129 ± 0.0051.
For the sequence GGAGACCUAUGAUAUCAACCUGACUACCUCA, the “pre-steady-state target cleavage rate” value in test [3] was found to be 0.00105 ± 0.0082.
Same read-out and setting: to GGAGACGAUACUAUAAAACCUACUACCUCA belongs 0.184 ± 0.013; to GGAGAGCAUACUAAACAACCUACUACCUCA, 0.158 ± 0.015.
On to GGAGACCUAUGAUAUGUUGCAUGUACCUCA, for which the “pre-steady-state target cleavage rate” value in test [3] came to 0.000226 ± 0.03.
Take GGAGACGAUACUAUACAACCUACUUCCACA: the “pre-steady-state target cleavage rate” value in test [3] is 0.0194 ± 0.0082.
Still for that read-out and setting: to GGAGACCUUACUAUACAACACUACUACCUCA belongs 0.000869 ± 0.0038; to GGAGACCUAUGAAUUGAACCUACUACCUCA, 0.000225 ± 0.019; to GGAGACCUAUGAUAUGUACCUACGACCUCA, 0.00012 ± 0.022.
Same read-out and setting: to GGAGACCAUACUAUACAACCUACUACCCCA belongs 0.156 ± 0.024; to GGAGACCAUACUAUACAACCUAGAUCCUCA, 0.0232 ± 0.0082.
“GGAGACCUAUGAUUACAACCUAGAUGGAGA [g9:g17:cont:t1A]”: in test [3], the “pre-steady-state target cleavage rate” value is 0.000166 ± 0.017.
Consider GGAGACGAUACUAUACAACGUACAACCUCA, for which the “pre-steady-state target cleavage rate” value in test [3] stood at 0.0345 ± 0.0071.
On the same count and under the same terms, to GGAGACGAUACUAUACAACCUUCUACGUCA belongs 0.00189 ± 0.0048; to GGAGACCUCACUAUACAACCUACUACCUCA, 0.252 ± 0.029.
In the case of GGAGACGAUACUAUACAAUCCUACUACCUCA, the “pre-steady-state target cleavage rate” value in test [3] came to 0.00226 ± 0.0041.
